# Results: PubChem BioAssay AID192 (DTP/NCI, 2004)
# The list is a part of this screen's results and no random one: it is rich in T/C values a quarter to a half above the control, in often repeated tests (any T/C) and in doses without a T/C. Further doses and runs are listed elsewhere. T/C is the treated group as % of the vehicle group. Some doses have a count of surviving animals in place of a T/C: the source files T/C as zero there, which appears to mark a toxic dose or a test without result, not a measured value. Some survivor counts are full or nearly so, which does not show that the dose was tolerated: survival well below the control is almost never listed, so the zero probably covers shortened survival too. Survivors were counted at the toxicity check, usually on the fifth day, unless a day is given; later deaths do not show. Schedules are NCI's codes, read here as Q, the interval in days (D) or hours (H), X, the number of doses. Where survival is the endpoint, the PubChem record calls one and a half times the control and up active, and a quarter to a half above the control has no call in these data; cut-offs in other NCI protocols can differ. Some T/C values carry the count of animals alive at the toxicity check (mostly the fifth day); where none is given, no animal had died by that day. Some entries were tested several times; the values are given in rising order. Additions like (4×) stand for listed records that agree. Peptide text beside a SMILES is read from it. * marks the point of attachment. Cbz = O=C(OCc1ccccc1)*
# System: BDF1 mice, B16 melanoma ip, median survival T/C
# Test: NCI In Vivo Anticancer Drug Screen. Data for tumor model B16 Melanoma (intraperitoneal) in B6D2F1 (BDF1) mice
# Details: T/C endpoint: median survival time, higher T/C = longer survival
# In short: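 Survival or tumor size is measured after treatment of tumor-bearing mice and normalised to the vehicle-treated control group.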
# [1] = dose: 4.0 mg/kg/injection, schedule: Q01DX009 (ip), vehicle: saline
# [2] = dose: 50.0 mg/kg/injection, schedule: Q01DX009 (ip), vehicle: saline with Tween-80
# [3] = dose: 100.0 mg/kg/injection, schedule: Q01DX009 (ip), vehicle: Klucel (hydroxypropylcellulose) (HPC)
# [4] = dose: 200.0 mg/kg/injection, schedule: Q01DX009 (ip), vehicle: Klucel (hydroxypropylcellulose) (HPC)
# [5] = dose: 400.0 mg/kg/injection, schedule: Q01DX009 (ip), vehicle: Klucel (hydroxypropylcellulose) (HPC)
# [6] = dose: 400.0 mg/kg/injection, schedule: Q01DX009 (ip), vehicle: saline with Tween-80
# [7] = dose: 200.0 mg/kg/injection, schedule: Q04DX003 (ip), vehicle: saline
# [8] = dose: 32.0 mg/kg/injection, schedule: Q01DX009 (ip), vehicle: water
# [9] = dose: 64.0 mg/kg/injection, schedule: Q01DX009 (ip), vehicle: water
# [10] = dose: 400.0 mg/kg/injection, schedule: Q01DX009 (ip), vehicle: saline
# [11] = dose: 200.0 mg/kg/injection, schedule: Q01DX009 (ip), vehicle: saline with Tween-80
smiles,measurement,setting,value
c1ccc([C@H]2CN3CCSC3=N2)cc1,T/C,"dose: 0.5 mg/kg/injection, schedule: Q01DX009 (ip), vehicle: saline","86 [9 of 10 alive], 96 [9 of 10 alive], 100, 103, 104, 106, 109, 116 % of control"
same,survivor count,"dose: 0.63 mg/kg/injection, schedule: Q01DX009 (ip), vehicle: saline",10 of 10
same,T/C,"dose: 1.0 mg/kg/injection, schedule: Q01DX009 (ip), vehicle: saline","95, 95 [9 of 10 alive], 98 (2×), 99 [9 of 10 alive], 105 (2×), 108 % of control"
same,survivor count,"dose: 1.25 mg/kg/injection, schedule: Q01DX009 (ip), vehicle: saline",9 of 10
same,T/C,"dose: 2.0 mg/kg/injection, schedule: Q01DX009 (ip), vehicle: saline","90, 91, 95, 96, 102, 103, 109, 118 % of control"
same,survivor count,"dose: 2.5 mg/kg/injection, schedule: Q01DX009 (ip), vehicle: saline",9 of 10
same,T/C,[1],"86 [8 of 10 alive], 92, 94 [9 of 10 alive], 95 [9 of 10 alive], 96, 105, 107, 123 % of control"
same,T/C,"dose: 8.0 mg/kg/injection, schedule: Q01DX009 (ip), vehicle: saline","92, 93, 95 [9 of 10 alive], 99, 100 (2×), 103, 131 % of control"
O=C(Nc1ccccc1)N(Cc1ccccc1)c1ccccc1,survivor count,"dose: 100.0 mg/kg/injection, schedule: Q04DX003 (ip), vehicle: carboxymethylcellulose (CMC)",10 of 10
same,survivor count,"dose: 400.0 mg/kg/injection, schedule: Q04DX003 (ip), vehicle: carboxymethylcellulose (CMC)",10 of 10
COc1cc(NCc2ccc3nc(N)nc(N)c3c2C)cc(OC)c1OC,T/C,"dose: 5.0 mg/kg/injection, schedule: Q01DX009 (ip), vehicle: sodium bicarbonate",133 % of control
same,T/C,"dose: 10.0 mg/kg/injection, schedule: Q01DX009 (ip), vehicle: sodium bicarbonate",128 % of control
same,survivor count,"dose: 40.0 mg/kg/injection, schedule: Q01DX009 (ip), vehicle: sodium bicarbonate",10 of 10
CCc1ccc(NC(=O)C(c2ccccc2)c2ccccc2)cc1,survivor count,[2],10 of 10
same,survivor count,[3],10 of 10
same,survivor count,[4],10 of 10
same,survivor count,[5],7 of 10
CCOC(=O)C(=CN1CCCCC1)C(=O)OCC,survivor count,[6],5 of 10
CCCCC[C@H](O)/C=C/[C@H]1[C@H](O)CC(=O)[C@@H]1C/C=C\CCCC(=O)O,survivor count,"dose: 12.0 mg/kg/injection, schedule: Q04DX002 (ip), vehicle: Klucel (hydroxypropylcellulose) (HPC)",3 of 3
same,survivor count,"dose: 50.0 mg/kg/injection, schedule: Q04DX002 (ip), vehicle: other",3 of 3
same,survivor count,"dose: 400.0 mg/kg/injection, schedule: Q04DX002 (ip), vehicle: other",3 of 3
CCOC(=O)C(NC(=O)C(Cc1ccc(N(CCCl)CCCl)cc1)NC(C)=O)C(C)C (centres undefined),survivor count,"dose: 12.5 mg/kg/injection, schedule: Q01DX009 (ip), vehicle: saline",10 of 10
same,survivor count,"dose: 25.0 mg/kg/injection, schedule: Q01DX009 (ip), vehicle: saline",10 of 10
same,survivor count,"dose: 50.0 mg/kg/injection, schedule: Q01DX009 (ip), vehicle: saline",5 of 10
same,survivor count,"dose: 100.0 mg/kg/injection, schedule: Q04DX003 (ip), vehicle: saline",5 of 10
same,survivor count,[7],1 of 10
same,survivor count,"dose: 400.0 mg/kg/injection, schedule: Q04DX003 (ip), vehicle: saline",1 of 10
CCC(C(=O)O)C(=O)O.[NH2-].[NH2-].[Pt+2],T/C,"dose: 25.0 mg/kg/injection, schedule: Q04DX003 (ip), vehicle: saline",138 % of control
same,survivor count,[8],10 of 10
same,survivor count,[9],10 of 10
same,survivor count,[7],10 of 10
CC(C)C(=O)[O][Sn]([c]1ccccc1)([c]1ccccc1)[c]1ccccc1,survivor count,"dose: 25.0 mg/kg/injection, schedule: Q01DX009 (ip), vehicle: saline with Tween-80",8 of 10
same,survivor count,[2],1 of 10
CCCCCCCCCCCC[N+](C)(C)CCCCCCCCCCCC,survivor count,[1],10 of 10
same,survivor count,"dose: 16.0 mg/kg/injection, schedule: Q01DX009 (ip), vehicle: saline",9 of 10
CNCCN(C)CCN(C)Cc1ccc(OC)cc1,survivor count,[10],3 of 10
COc1cc(C=O)cc(O)c1O,survivor count,[10],10 of 10
COC(=O)CNC(=O)C(NC(=O)C1CCCN1C(=O)OCc1ccccc1)C(C)C (stereo not drawn) (Cbz-Pro-Val-Gly-OMe; configuration not given here),survivor count,[11],10 of 10
same,survivor count,[6],3 of 10
O=C=Nc1ccc(Cc2ccc(N=C=O)cc2)cc1,T/C,[3],136 % of control
same,T/C,[4],136 % of control
C1CC[N-]CC1.CC(=N\O)/C(C)=N/O.CC(=N\O)/C(C)=N/O.C[CH-]CC.[Co+2],survivor count,[3],9 of 10
Cn1ccc(=Nc2ccc(NC(=O)c3ccc(N=c4ccn(C)c5ccc([N+](=O)[O-])cc45)cc3)cc2)cc1,survivor count,"dose: 50.0 mg/kg/injection, schedule: Q01DX009 (ip), vehicle: other",10 of 10
same,survivor count,"dose: 100.0 mg/kg/injection, schedule: Q01DX009 (ip), vehicle: other",8 of 10
CCC1OCC(C(Cl)CCl)O1 (centres undefined),survivor count,[5],3 of 10
Brc1nnnn1-c1ccccc1,survivor count,[5],10 of 10
CC(=O)O[C@H]1CC[C@H]2[C@@H]3CC[C@H]4CC=C(C#N)C[C@]4(C)[C@H]3CC[C@]12C,survivor count,"dose: 6.25 mg/kg/injection, schedule: Q01DX009 (ip), vehicle: Klucel (hydroxypropylcellulose) (HPC)",10 of 10
same,survivor count,"dose: 12.5 mg/kg/injection, schedule: Q01DX009 (ip), vehicle: Klucel (hydroxypropylcellulose) (HPC)",10 of 10
same,survivor count,"dose: 25.0 mg/kg/injection, schedule: Q01DX009 (ip), vehicle: Klucel (hydroxypropylcellulose) (HPC)",10 of 10
CC[PH+](CC)CC[S-].CC[PH+](CC)CC[S-].[Au+].[Au+],survivor count,"dose: 80.0 mg/kg/injection, schedule: Q01DX009 (ip), vehicle: Klucel (hydroxypropylcellulose) (HPC)",0 of 10
C[C@@H](CN1CC(=O)NC(=O)C1)N1CC(=O)NC(=O)C1,T/C,[8],131 % of control
same,T/C,"dose: 50.0 mg/kg/injection, schedule: Q04DX003 (ip), vehicle: water",130 % of control
same,survivor count,"dose: 64.0 mg/kg/injection, schedule: Q01DX009 (ip), vehicle: saline with Tween-80",10 of 10
same,T/C,[9],133 and 142 % of control
same,T/C,"dose: 128.0 mg/kg/injection, schedule: Q01DX009 (ip), vehicle: water",133 % of control
same,T/C,"dose: 200.0 mg/kg/injection, schedule: Q04DX003 (ip), vehicle: water",127 % of control
same,T/C,"dose: 256.0 mg/kg/injection, schedule: Q01DX009 (ip), vehicle: water",142 % of control
same,T/C,"dose: 400.0 mg/kg/injection, schedule: Q04DX003 (ip), vehicle: water",130 % of control
same,survivor count,"dose: 512.0 mg/kg/injection, schedule: Q01DX009 (ip), vehicle: water",10 of 10
same,T/C,"dose: 800.0 mg/kg/injection, schedule: Q04DX003 (ip), vehicle: water",132 % of control
Cc1n(CC(C)C)c2c([n+]1CC(=O)c1ccc([N+](=O)[O-])cc1)C(=O)c1ccccc1C2=O,survivor count,"dose: 5.0 mg/kg/injection, schedule: Q01DX009 (ip), vehicle: saline with Tween-80",1 of 6
same,survivor count,"dose: 10.0 mg/kg/injection, schedule: Q01DX009 (ip), vehicle: saline with Tween-80",0 of 6
Nc1ccc(Cl)cc1N,survivor count,[11],8 of 10
same,survivor count,[6],6 of 10
O=C1C=CC(=O)C2=C1CCCC2,survivor count,"dose: 2.0 mg/kg/injection, schedule: Q01DX009 (ip), vehicle: saline with Tween-80",8 of 9
same,survivor count,"dose: 6.5 mg/kg/injection, schedule: Q01DX009 (ip), vehicle: saline with Tween-80",9 of 10
O=C(Nc1ccc(F)cc1)C(c1ccccc1)c1ccccc1,survivor count,[3],10 of 10
same,survivor count,[4],10 of 10
same,survivor count,[5],10 of 10
